We go through 19 molecules from publication PMC10516600.

By UniProt entry, the sequences of proteins in these tests, tags left out.
UniProt Q02224: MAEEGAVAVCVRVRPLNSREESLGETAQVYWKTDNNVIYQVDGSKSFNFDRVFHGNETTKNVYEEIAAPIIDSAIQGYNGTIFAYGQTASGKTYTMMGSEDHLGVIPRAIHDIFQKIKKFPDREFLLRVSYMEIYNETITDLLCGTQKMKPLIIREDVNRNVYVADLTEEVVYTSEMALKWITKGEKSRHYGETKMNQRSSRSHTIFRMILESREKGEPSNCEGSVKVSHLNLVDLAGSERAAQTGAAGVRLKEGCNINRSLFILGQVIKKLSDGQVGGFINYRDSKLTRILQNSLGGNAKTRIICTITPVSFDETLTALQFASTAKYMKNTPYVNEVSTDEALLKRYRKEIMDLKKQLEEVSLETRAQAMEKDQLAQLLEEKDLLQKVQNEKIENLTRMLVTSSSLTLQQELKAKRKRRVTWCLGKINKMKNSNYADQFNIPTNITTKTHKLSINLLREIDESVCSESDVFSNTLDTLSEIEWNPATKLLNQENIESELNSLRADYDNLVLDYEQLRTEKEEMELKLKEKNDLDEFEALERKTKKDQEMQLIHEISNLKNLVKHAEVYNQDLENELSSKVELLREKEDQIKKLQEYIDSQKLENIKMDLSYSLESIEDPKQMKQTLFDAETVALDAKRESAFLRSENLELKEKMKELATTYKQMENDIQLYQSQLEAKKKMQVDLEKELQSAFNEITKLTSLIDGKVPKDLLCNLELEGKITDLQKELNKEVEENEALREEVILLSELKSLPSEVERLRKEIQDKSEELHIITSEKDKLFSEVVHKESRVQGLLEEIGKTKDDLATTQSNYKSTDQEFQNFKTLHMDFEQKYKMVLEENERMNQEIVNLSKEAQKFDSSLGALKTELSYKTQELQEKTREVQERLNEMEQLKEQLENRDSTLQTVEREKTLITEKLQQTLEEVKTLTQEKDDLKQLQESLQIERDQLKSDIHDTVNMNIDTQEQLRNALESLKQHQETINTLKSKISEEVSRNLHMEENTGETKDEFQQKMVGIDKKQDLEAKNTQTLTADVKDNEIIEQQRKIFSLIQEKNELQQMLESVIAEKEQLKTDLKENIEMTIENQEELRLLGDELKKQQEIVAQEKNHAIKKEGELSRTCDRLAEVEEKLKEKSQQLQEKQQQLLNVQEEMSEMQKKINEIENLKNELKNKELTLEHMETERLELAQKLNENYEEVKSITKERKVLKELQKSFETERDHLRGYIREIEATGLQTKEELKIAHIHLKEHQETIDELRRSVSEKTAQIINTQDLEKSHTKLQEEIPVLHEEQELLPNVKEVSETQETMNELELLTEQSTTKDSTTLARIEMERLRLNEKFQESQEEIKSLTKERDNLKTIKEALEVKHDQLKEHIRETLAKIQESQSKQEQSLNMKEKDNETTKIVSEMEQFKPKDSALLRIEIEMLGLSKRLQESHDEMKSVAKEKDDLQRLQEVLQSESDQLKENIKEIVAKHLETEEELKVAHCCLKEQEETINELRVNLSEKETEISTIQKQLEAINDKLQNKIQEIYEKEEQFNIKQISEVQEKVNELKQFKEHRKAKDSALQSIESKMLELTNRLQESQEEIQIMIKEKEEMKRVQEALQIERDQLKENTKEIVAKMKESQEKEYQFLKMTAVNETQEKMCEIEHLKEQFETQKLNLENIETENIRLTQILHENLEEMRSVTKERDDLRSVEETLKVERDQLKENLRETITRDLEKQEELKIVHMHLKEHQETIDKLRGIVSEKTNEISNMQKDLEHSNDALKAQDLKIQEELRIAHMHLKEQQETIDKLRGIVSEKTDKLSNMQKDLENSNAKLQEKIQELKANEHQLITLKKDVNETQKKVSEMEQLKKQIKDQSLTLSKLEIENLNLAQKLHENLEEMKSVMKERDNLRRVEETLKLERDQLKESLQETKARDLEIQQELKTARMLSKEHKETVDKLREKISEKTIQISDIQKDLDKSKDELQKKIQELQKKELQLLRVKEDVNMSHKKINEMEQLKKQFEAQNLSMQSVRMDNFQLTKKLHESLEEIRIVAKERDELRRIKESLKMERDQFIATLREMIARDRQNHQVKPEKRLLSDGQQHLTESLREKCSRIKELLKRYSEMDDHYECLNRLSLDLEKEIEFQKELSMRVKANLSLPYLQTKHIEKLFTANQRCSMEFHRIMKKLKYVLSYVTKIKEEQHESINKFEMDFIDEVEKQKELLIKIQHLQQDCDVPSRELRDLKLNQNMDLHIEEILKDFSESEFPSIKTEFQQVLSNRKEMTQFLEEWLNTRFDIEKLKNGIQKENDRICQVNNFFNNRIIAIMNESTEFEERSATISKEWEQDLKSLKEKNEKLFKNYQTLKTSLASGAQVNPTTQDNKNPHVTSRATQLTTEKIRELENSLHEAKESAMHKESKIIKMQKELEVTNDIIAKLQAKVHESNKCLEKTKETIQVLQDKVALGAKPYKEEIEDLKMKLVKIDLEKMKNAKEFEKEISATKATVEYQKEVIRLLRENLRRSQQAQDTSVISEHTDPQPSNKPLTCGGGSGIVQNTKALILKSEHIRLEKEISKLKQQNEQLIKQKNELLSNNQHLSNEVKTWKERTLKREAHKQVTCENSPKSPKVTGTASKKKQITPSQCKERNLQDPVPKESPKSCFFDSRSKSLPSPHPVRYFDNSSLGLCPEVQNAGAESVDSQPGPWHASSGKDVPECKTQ
UniProt Q8TEP8: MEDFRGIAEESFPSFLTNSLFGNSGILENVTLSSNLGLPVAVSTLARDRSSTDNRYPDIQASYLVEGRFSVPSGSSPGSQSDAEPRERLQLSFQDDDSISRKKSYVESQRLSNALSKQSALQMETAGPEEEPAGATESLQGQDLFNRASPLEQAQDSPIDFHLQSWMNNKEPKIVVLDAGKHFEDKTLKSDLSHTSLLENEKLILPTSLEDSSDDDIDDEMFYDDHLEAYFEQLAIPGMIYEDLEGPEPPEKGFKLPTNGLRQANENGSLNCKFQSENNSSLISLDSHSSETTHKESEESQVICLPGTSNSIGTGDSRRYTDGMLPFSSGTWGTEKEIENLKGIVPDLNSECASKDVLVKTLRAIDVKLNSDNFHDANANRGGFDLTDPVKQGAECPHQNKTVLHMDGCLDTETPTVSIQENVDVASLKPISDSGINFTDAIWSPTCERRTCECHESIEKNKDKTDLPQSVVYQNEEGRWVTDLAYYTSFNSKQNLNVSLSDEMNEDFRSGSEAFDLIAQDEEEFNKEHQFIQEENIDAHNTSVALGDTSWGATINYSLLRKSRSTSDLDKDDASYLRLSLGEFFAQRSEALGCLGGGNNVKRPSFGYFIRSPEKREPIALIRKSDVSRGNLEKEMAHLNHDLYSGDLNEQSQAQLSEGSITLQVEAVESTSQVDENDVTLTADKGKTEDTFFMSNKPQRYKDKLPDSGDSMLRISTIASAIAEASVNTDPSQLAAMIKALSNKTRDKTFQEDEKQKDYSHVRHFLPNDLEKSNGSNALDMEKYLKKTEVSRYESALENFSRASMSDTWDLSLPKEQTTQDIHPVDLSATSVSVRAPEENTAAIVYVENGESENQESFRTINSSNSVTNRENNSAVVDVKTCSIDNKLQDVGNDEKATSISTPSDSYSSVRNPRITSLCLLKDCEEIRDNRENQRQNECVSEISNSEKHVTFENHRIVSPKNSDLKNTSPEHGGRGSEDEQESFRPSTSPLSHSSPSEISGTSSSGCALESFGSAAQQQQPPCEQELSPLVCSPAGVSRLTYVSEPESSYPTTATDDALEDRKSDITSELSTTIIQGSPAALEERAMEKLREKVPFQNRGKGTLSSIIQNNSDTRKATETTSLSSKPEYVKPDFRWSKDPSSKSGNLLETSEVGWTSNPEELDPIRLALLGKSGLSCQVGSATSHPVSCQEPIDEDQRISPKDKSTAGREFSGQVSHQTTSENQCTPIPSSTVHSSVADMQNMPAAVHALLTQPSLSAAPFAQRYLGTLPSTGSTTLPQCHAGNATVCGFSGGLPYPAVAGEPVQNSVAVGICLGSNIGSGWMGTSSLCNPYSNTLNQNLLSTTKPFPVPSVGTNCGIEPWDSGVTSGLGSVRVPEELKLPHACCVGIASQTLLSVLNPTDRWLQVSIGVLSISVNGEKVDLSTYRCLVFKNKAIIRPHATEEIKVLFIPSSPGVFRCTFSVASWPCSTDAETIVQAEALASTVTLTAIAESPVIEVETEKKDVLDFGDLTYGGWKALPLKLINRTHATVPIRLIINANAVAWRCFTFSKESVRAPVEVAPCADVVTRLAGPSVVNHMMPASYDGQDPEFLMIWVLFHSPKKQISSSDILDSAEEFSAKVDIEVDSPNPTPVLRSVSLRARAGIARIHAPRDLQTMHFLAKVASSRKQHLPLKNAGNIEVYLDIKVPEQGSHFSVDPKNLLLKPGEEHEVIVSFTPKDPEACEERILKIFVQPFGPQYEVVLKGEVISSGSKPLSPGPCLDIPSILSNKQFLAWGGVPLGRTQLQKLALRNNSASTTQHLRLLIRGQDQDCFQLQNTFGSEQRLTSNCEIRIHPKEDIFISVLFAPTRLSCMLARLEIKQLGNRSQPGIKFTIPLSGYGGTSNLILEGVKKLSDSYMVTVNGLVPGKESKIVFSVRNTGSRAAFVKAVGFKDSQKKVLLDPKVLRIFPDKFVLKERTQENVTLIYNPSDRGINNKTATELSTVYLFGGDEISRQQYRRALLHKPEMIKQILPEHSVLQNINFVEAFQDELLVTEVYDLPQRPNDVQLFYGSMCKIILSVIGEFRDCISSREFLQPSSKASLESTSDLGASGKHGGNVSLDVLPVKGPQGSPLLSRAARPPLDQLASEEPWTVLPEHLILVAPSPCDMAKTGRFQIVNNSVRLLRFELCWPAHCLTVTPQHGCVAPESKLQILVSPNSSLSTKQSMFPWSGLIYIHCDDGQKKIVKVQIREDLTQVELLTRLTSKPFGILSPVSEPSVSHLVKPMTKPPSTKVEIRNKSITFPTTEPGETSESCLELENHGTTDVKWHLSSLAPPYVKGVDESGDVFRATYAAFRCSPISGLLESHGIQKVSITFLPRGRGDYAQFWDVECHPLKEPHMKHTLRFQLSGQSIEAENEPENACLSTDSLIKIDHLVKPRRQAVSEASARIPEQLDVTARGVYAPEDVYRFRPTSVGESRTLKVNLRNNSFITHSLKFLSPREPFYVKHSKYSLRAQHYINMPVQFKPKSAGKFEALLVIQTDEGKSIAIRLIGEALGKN
UniProt Q9H0U4: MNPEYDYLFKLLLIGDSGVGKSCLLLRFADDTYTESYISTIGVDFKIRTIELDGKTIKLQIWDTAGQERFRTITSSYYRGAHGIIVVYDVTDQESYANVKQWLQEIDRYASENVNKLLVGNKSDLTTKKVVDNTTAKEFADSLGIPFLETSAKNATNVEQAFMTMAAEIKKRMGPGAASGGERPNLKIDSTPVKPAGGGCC
UniProt Q15286: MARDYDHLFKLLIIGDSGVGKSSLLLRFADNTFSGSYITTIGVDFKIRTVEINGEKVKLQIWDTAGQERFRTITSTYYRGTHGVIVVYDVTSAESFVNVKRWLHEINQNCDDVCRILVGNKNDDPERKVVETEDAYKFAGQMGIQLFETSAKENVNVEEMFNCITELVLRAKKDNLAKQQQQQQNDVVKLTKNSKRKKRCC
UniProt P23258: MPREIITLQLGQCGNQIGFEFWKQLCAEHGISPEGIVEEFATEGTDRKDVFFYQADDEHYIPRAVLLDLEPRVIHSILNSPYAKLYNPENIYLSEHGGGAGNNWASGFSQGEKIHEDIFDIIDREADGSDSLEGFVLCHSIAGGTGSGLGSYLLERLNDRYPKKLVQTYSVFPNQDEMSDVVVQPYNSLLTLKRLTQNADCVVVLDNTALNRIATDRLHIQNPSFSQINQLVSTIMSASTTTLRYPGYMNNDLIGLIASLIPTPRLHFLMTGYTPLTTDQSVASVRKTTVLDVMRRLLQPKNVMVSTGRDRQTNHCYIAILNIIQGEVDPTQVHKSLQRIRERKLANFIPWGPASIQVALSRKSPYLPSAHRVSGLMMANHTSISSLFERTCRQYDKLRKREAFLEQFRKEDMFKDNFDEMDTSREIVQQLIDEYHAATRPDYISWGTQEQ
UniProt Q9NRH3: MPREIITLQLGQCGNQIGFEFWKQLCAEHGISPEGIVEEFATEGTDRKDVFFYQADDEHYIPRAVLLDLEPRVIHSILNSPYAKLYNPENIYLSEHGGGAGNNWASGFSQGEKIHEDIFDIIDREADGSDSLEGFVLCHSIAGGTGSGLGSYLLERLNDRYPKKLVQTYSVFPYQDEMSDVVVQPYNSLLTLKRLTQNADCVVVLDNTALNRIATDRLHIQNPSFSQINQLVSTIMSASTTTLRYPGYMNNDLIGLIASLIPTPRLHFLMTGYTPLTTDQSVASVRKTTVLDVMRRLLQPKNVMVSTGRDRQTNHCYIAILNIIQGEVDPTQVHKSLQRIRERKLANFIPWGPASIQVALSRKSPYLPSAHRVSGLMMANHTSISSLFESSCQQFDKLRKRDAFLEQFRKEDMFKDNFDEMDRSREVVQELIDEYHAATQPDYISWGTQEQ

No constants are given. Whether binding was seen depends on the method and setting. Binding seen in cells or lysates may run through a third protein. Here binding means that the protein was enriched with, or labelled near, the bait; the list need not be complete. Tags and fused reporters may be left off the sequences shown.

The assay concerns the target T1, exogenous CRB3b (CRB3-GFP) stably expressed in MCF10A cells (human) (UniProt Q9BUF7).
T1 sequence: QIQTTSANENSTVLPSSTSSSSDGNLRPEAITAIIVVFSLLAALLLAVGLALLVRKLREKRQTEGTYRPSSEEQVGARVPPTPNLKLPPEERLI
In words: affinity purification with mass spectrometry; co-IP tandem mass spectrometry with tagged exogenous CRB3b as bait in MCF10A cells; LC-MS/MS on Q Exactive Plus.

On to CENP-E (from UniProt Q02224 1-2701), for which the binding entry is listed as “binds”.

Take CEP192 (from UniProt Q8TEP8 1-2537): the binding result is listed as “binds”.

As to “CEP290 (endogenous, MCF10A cells) (from UniProt O15078 1-2479)”, the binding entry was “binds”.

For CEP295 (from UniProt Q9C0D2 1-2601), the binding result was “binds”.

Regarding Rab1A (from UniProt P62820 1-205), the binding entry was “binds”.

With Rab1B (from UniProt Q9H0U4 1-201), the binding entry was “binds”.

On to Rab2A (from UniProt P61019 1-212), for which the binding result was “binds”.

Take Rab5C (from UniProt P51148 1-216): the binding result is on record as “binds”.

Take Rab6A (from UniProt P20340 1-208): the binding result is “binds”.

In the case of Rab10 (from UniProt P61026 1-200), the binding result is on record as “binds”.

As for Rab11A (from UniProt P62491 1-216), the binding result is “binds”.

For the molecule Rab21 (from UniProt Q9UL25 1-225), the binding entry was “binds”.

For the molecule Rab35 (from UniProt Q15286 1-201), the binding result is recorded as “binds”.

As to “tubulin gamma-1 (from UniProt P23258 1-451)”, the binding result is listed as “binds”.

For the molecule “tubulin gamma-2 (from UniProt Q9NRH3 1-451)”, the binding entry is reported as “binds”.

B1: Rab32 (protein, UniProt Q13637 1-225)
chain: MAGGGAGDPGLGAAAAPAPETREHLFKVLVIGELGVGKTSIIKRYVHQLFSQHYRATIGVDFALKVLNWDSRTLVRLQLWDIAGQERFGNMTRVYYKEAVGAFVVFDISRSSTFEAVLKWKSDLDSKVHLPNGSPIPAVLLANKCDQNKDSSQSPSQVDQFCKEHGFAGWFETSAKDNINIEEAARFLVEKILVNHQSFPNEENDVDKIKLDQETLRAENKSQCC
On to B1, for which the binding result is on record as “binds”.

B2: Rab5B (protein, UniProt P61020 1-215)
chain: MTSRSTARPNGQPQASKICQFKLVLLGESAVGKSSLVLRFVKGQFHEYQESTIGAAFLTQSVCLDDTTVKFEIWDTAGQERYHSLAPMYYRGAQAAIVVYDITNQETFARAKTWVKELQRQASPSIVIALAGNKADLANKRMVEYEEAQAYADDNSLLFMETSAKTAMNVNDLFLAIAKKLPKSEPQNLGGAAGRSRGVDLHEQSQQNKSQCCSN
With B2, the binding result is recorded as “binds”.

B3: Rab38 (protein, UniProt P57729 1-211)
chain: MQAPHKEHLYKLLVIGDLGVGKTSIIKRYVHQNFSSHYRATIGVDFALKVLHWDPETVVRLQLWDIAGQERFGNMTRVYYREAMGAFIVFDVTRPATFEAVAKWKNDLDSKLSLPNGKPVSVVLLANKCDQGKDVLMNNGLKMDQFCKEHGFVGWFETSAKENINIDEASRCLVKHILANECDLMESIEPDVVKPHLTSTKVASCSGCAKS
For B3, the binding entry is on record as “binds”.

B4: CEP162 (protein, UniProt Q5TB80 1-1403)
chain: MANCSQEELDEEFEQFMKELSDDSFENSDKTARQSKKEMKKKDTVPWWITEDDFKDDGLLGTNVSYLKTKKTSQPVMEIEEESAEKIQFLKSSGTSLLSTDSLETNELVVSELNHSSLGVGLDTLEEQEEKEQFFARLEKGLTSSIDYSRLNKELDSNDSTHFKALHSNQANAELTDDEHENESKHEELAENYSDDFEDEYVGAPLTTKDEEMPSKENSKSEKISVPKQEEEKTGMLANVVLLDSLDSVAEVNLDEQDKITPKPRCLPEMTENEMTGTGVSYGQSSSDVEALHQAYCHIAHSLGDEDKQKIESNTVEDIKSSVKGHPQENEENSKNISTMESDLPTVEELMKPIRIDSFGISGFDLQPVSSEKVAERKETEFFSSLPLKMNPNILSQDSQHVNLFFDKNDENVILQKTTNESMENSCPQVTEVTATEEHVDKMYLNILRKKITVNSSSLSQDDKINKTYRSQLSSEEEGAVMGKQVPYKKARSAPPLLKRKPQSGLYASVRSSGYGKPSSPLKMFSTLEKKTSEDIIKSKNLRSISTSNQPRKKEILSGTKLIKPAALDKPAHKTESCLSTRKKSENPTETDSCIQFQTDSLGYCGENKEKKLLMFKRVQEAEDKWRGAQALIEQIKATFSEKEKELENKLEELKKQQEKELFKLNQDNYILQAKLSSFEETNKKQRWLHFGEAADPVTGEKLKQIQKEIQEQETLLQGYQQENERLYNQVKDLQEQNKKNEERMFKENQSLFSEVASLKEQMHKSRFLSQVVEDSEPTRNQNFTDLLAELRMAQKEKDSLLEDIKRLKQDKQALEVDFEKMKKERDQAKDQIAYVTGEKLYEIKILEETHKQEISRLQKRLQWYAENQELLDKDALRLREANEEIEKLKLEIEKLKAESGNPSIRQKIRLKDKAADAKKIQDLERQVKEMEGILKRRYPNSLPALILAASAAGDTVDKNTVEFMEKRIKKLEADLEGKDEDAKKSLRTMEQQFQKMKIQYEQRLEQQEQLLACKLNQHDSPRIKALEKELDDIKEAHQITVRNLEAEIDVLKHQNAELDVKKNDKDDEDFQSIEFQVEQAHAKAKLVRLNEELAAKKREIQDLSKTVERLQKDRRMMLSNQNSKGREEMSAKRAKKDVLHSSKGNANSFPGTLDSKLYQPHTFTDSHVSEVLQENYRLKNELEGLISEKNELKMKSEAVMNQFENSMRRVKEDTAAHIASLKASHQREIEKLLCQNAVENSSSKVAELNRKIATQEVLIRHFQSQVNELQSKQESLVVSEVREEILQKEITKLLEELREAKENHTPEMKHFVGLEKKIKQMEMRHAQREQELQQIIQQTHQVVETEQNKEVEKWKRLAQLKNRELEKFRTELDSILDVLRELHRQGVVVPVAFADEMNAPEY
With B4, the binding entry is recorded as “binds”.
